Measured values as given in doi:10.1101/2023.11.29.568318.
No constants are given. Whether binding was seen depends on the method and setting. In cells and extracts the contact can be indirect. Some results given as binding are weak or reduced against the parent protein; the word gives no strength.

Chains of the proteins cited; added tags and fusions are not shown. Residues count along the entry.
UniProt P05067, residues 672-713: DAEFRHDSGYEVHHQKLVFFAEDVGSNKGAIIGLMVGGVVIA

B1: Smoc1 (protein, UniProt Q8BLY1 26-463)
chain: HRTTGPRFLISDRDPPCNPHCPRTQPKPICASDGRSYESMCEYQRAKCRDPALAVVHRGRCKDAGQSKCRLERAQALEQAKKPQEAVFVPECGEDGSFTQVQCHTYTGYCWCVTPDGKPISGSSVQNKTPVCSGPVTDKPLSQGNSGRKVSFRFFLTLNSDDGSKPTPTMETQPVFDGDEITAPTLWIKHLVIKDSKLNNTNVRNSEKVHSCDQERQSALEEARQNPREGIVIPECAPGGLYKPVQCHQSTGYCWCVLVDTGRPLPGTSTRYVMPSCESDARAKSVEADDPFKDRELPGCPEGKKMEFITSLLDALTTDMVQAINSAAPTGGGRFSEPDPSHTLEERVAHWYFSQLDSNSSDDINKREMKPFKRYVKKKAKPKKCARRFTDYCDLNKDKVISLPELKGCLGVSKEGGSLGSFPQGKRAGTNPFIGRLV
B2: Frzb (protein, UniProt P97401 33-323)
chain: AACEPVRIPLCKSLPWNMTKMPNHLHHSTQANAILAMEQFEGLLGTHCSPDLLFFLCAMYAPICTIDFQHEPIKPCKSVCERARQGCEPILIKYRHSWPESLACDELPVYDRGVCISPEAIVTADGADFPMDSSTGHCRGASSERCKCKPVRATQKTYFRNNYNYVIRAKVKEVKMKCHDVTAVVEVKEILKASLVNIPRDTVNLYTTSGCLCPPLTVNEEYVIMGYEDEERSRLLLVEGSIAEKWKDRLGKKVKRWDMKLRHLGLGKTDASDSTQNQKSGRNSNPRPARS
B3: Smoc2 (protein, UniProt Q8CD91 22-447)
chain: QKFSALTFLRVDQDKDRDCSLDCPSSPQKPLCASDGRTFLSRCEFQRAKCKDPQLEIAHRGNCKDVSRCVAERKYTQEQARKEFQQVFIPECNDDGTYSQVQCHSYTGYCWCVTPNGRPISGTAVAHKTPRCPGSINEKVPQREGAGKADDAAAPALETQPQGDEEDIASRYPTLWTEQVKSRQNKTNKNSASSCDQEHQSALEEAKQPKNDNVVIPECAHGGLYKPVQCHPSTGYCWCVLVDTGRPIPGTSTRYEQPKCDNTARAHPAKARDLYKNRPLQGCPGAKKHEFLTSVLDALSTDMVHAVSDPSSSSGRLSEPDPSHTLEERVVHWYFKLLDKNSSGDIGKKEIKPFKRFLRKKSKPKKCVKKFVEYCDMNNDKSITVQELMGCLGVTREEGKANTRKRHTPRGNAESSSSNRQPRKQG
B4: Nog (protein, UniProt P97466 28-232)
chain: QHYLHIRPAPSDNLPLVDLIEHPDPIFDPKEKDLNETLLRSLLGGHYDPGFMATSPPEDRPGGGGGPAGGAEDLAELDQLLRQRPSGAMPSEIKGLEFSEGLAQGKKQRLSKKLRRKLQMWLWSQTFCPVLYAWNDLGSRFWPRYVKVGSCFSKRSCSVPEGMVCKPSKSVHLTVLRWRCQRRGGQRCGWIPIQYPIISECKCSC
B5: Sfrp1 (protein, UniProt Q8C4U3 32-314)
chain: SEYDYVSFQSDIGSYQSGRFYTKPPQCVDIPVDLRLCHNVGYKKMVLPNLLEHETMAEVKQQASSWVPLLNKNCHMGTQVFLCSLFAPVCLDRPIYPCRWLCEAVRDSCEPVMQFFGFYWPEMLKCDKFPEGDVCIAMTPPNTTEASKPQGTTVCPPCDNELKSEAIIEHLCASEFALRMKIKEVKKENGDKKIVPKKKKPLKLGPIKKKELKRLVLFLKNGADCPCHQLDNLSHNFLIMGRKVKSQYLLTAIHKWDKKNKEFKNFMKRMKNHECPTFQSVFK
B6: midkine (protein, UniProt P12025 23-140)
chain: KKKEKVKKGSECSEWTWGPCTPSSKDCGMGFREGTCGAQTQRVHCKVPCNWKKEFGADCKYKFESWGACDGSTGTKARQGTLKKARYNAQCQETIRVTKPCTSKTKSKTKAKKGKGKD
B7: Vtn (protein, UniProt P29788 20-478)
chain: DQESCKGRCTQGFMASKKCQCDELCTYYQSCCADYMEQCKPQVTRGDVFTMPEDDYWSYDYVEEPKNNTNTGVQPENTSPPGDLNPRTDGTLKPTAFLDPEEQPSTPAPKVEQQEEILRPDTTDQGTPEFPEEELCSGKPFDAFTDLKNGSLFAFRGQYCYELDETAVRPGYPKLIQDVWGIEGPIDAAFTRINCQGKTYLFKGSQYWRFEDGVLDPGYPRNISEGFSGIPDNVDAAFALPAHRYSGRERVYFFKGKQYWEYEFQQQPSQEECEGSSLSAVFEHFALLQRDSWENIFELLFWGRSSDGAREPQFISRNWHGVPGKVDAAMAGRIYVTGSLSHSAQAKKQKSKRRSRKRYRSRRGRGHRRSQSSNSRRSSRSIWFSLFSSEESGLGTYNNYDYDMDWLVPATCEPIQSVYFFSGDKYYRVNLRTRRVDSVNPPYPRSIAQYWLGCPTSEK
B8: pleiotrophin (protein, UniProt P21246 33-168)
chain: GKKEKPEKKVKKSDCGEWQWSVCVPTSGDCGLGTREGTRTGAECKQTMKTQRCKIPCNWKKQFGAECKYQFQAWGECDLNTALKTRTGSLKRALHNAECQKTVTISKPCGKLTKPKPQAESKKKKKEGKKQEKMLD
B9: Olfml3 (protein, UniProt Q8BK62 22-406)
chain: QQHHLVEYMERRLAALEERLAQCQDQSSRLAAELRDFKNKMLPLLEVAEKERETLRTEADSISGRVDRLEREVDYLETQNPALPCVELDEKVTGGPGAKGKGRRNEKYDMVTDCSYTVAQVRSMKILKRFGGSAGLWTKDPLGPAEKIYVLDGTQNDTAFVFPRLRDFTLAMAARKASRIRVPFPWVGTGQLVYGGFLYYARRPPGGPGGGGELENTLQLIKFHLANRTVVDSSVFPAESLIPPYGLTADTYIDLAADEEGLWAVYATRDDDRHLCLAKLDPQTLDTEQQWDTPCPRENAEAAFVICGTLYVVYNTRPASRARIQCSFDASGTLAPERAALSYFPRRYGAHASLRYNPRERQLYAWDDGYQIVYKLEMKKKEEEV

These binders were tested against amyloid beta 1-42 fibrils (human) (UniProt P05067) (assay: co-sedimentation).
With B1 the binding was “binds”. In the case of B2, the binding is reported as “binds”. In the case of B3, the binding is reported as “binds”. B4 was tested, and the binding was “binds”. In the case of B5, the binding is reported as “binds”. In the case of B6, the binding is reported as “binds”. B7 was tested, and the binding was “binds”. B8 was tested, and the binding was “binds”. In the case of B9, the binding is reported as “binds”.
